Article PMC7819943, “Rice protein-binding microarrays: a tool to detect cis-acting elements near promoter regions in rice”
The list shows a part of the results.

These sequences were tested against T1, OsSMF1 (Oryza sativa, UniProt Q6ZLB0 1-436) (assay: protein-binding microarray (RPBM); PBS, 2% BSA, 51.3 ng/ul salmon testes DNA, 50 uM zinc acetate, 200 nM TF, 25 C, 1 h; high values mean tight binding). Details: protein: recombinant; tags: N-terminal polyhistidine and DsRed monomer fusion (pET32a); chain copies: 2; label: CyDye5-dUTP incorporated in the synthesized complementary strand; 3' TTTTT single-stranded linker to array surface; dsDNA, one strand shown.
T1 sequence: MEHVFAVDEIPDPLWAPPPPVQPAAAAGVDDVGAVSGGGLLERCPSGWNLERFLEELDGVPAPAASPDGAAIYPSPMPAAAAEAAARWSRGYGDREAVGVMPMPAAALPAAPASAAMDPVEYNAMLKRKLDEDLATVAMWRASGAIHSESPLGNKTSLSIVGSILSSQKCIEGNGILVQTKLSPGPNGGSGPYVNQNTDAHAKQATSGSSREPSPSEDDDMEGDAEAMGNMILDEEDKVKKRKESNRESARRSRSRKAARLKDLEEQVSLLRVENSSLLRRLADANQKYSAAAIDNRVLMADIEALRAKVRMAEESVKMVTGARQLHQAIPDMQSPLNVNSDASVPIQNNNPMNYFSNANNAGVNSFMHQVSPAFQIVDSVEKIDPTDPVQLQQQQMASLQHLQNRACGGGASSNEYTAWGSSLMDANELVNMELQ
Procedure, shortened: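 An Axon 4000B scanner gave the binding signal as per-feature fluorescence intensity in arbitrary units. This followed washing of a custom Agilent array that had been incubated for 1 h at 25 °C with 200 nM protein in PBS, 2% BSA, salmon testes DNA and 50 µM zinc acetate. The proteins were transcription factors fused at the N-terminus to polyhistidine and DsRed, expressed in E. coli BL21-CodonPlus and purified on Ni–NTA.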

Row | Sequence | binding signal
1 | TTAATTTGCTGATGTCTCTGCCATGGCACCATGGCAAGATCGGAGTCACCTAGTGCAG | 4380 fluorescence intensity (a.u.)
2 | TCTCACAATACACCATTAGATGGGCTATCATCTCTGTTCGCGGAGTCACCTAGTGCAG | 3320 fluorescence intensity (a.u.)
3 | TAAGTACAGTTTTACACTATTCACGTCCAACGTTTGACCGCGGAGTCACCTAGTGCAG | 4980 fluorescence intensity (a.u.)
4 | CACTTCCAAATGAGCACCAAGCTGTACCGACAATCTGGCACGGAGTCACCTAGTGCAG | 25200 fluorescence intensity (a.u.)
5 | CTACACGATTGATACCTACAGCCACGCCGTCGAATCCGTTCGGAGTCACCTAGTGCAG | 3730 fluorescence intensity (a.u.)
6 | CGGGCCCCTTCTTCGTCGCCGCGCTCCGCCTCCTCCCCGCCGGAGTCACCTAGTGCAG | 9750 fluorescence intensity (a.u.)
7 | TATTTCTGTCCACGATGGTATTTTGACTAAGATGCACTAGCGGAGTCACCTAGTGCAG | 5150 fluorescence intensity (a.u.)
8 | AAACTAGCCACGTTGGCGCCACGTCAGCCAAAACCGCCTTCGGAGTCACCTAGTGCAG | 33700 fluorescence intensity (a.u.)
9 | GGGCCCCACGCTCTGATCCCATAACCAACAATTATGCAGGCGGAGTCACCTAGTGCAG | 3850 fluorescence intensity (a.u.)
10 | ACTAATTACACGTCAGCTTGCTTAGCCGCGTCGCGCTGCTCGGAGTCACCTAGTGCAG | 30400 fluorescence intensity (a.u.)
11 | CTTATTGTAGTTCAGTTCTTGGGAGGGGAGGACAAGGCAGCGGAGTCACCTAGTGCAG | 3380 fluorescence intensity (a.u.)
12 | GCTCATATGACTATACTGTGCTTTTATAAAGTGCAAATGCCGGAGTCACCTAGTGCAG | 3300 fluorescence intensity (a.u.)
13 | CTCTTCCTCCGCACGCCGCCGCAGACCGGATCCACGTAGCCGGAGTCACCTAGTGCAG | 4410 fluorescence intensity (a.u.)
14 | TTCTCATAGGCTACGATGGCACTTGCGGCGTCACCGAGGGCGGAGTCACCTAGTGCAG | 4170 fluorescence intensity (a.u.)
15 | ATTTCCAGTAGCTCTACTGATCATCACTGGGTGACATGGTCGGAGTCACCTAGTGCAG | 3200 fluorescence intensity (a.u.)
16 | GTGGTTTATAAAATTATGTCATCGTGTTGCTCGCCTCTCGCGGAGTCACCTAGTGCAG | 4680 fluorescence intensity (a.u.)
17 | GGCGGATGAAGAGAGCGCAACACGTGGTAGCATAATTTTGCGGAGTCACCTAGTGCAG | 5380 fluorescence intensity (a.u.)
18 | TTCATCCGCTGTTCGGATGATTTCTGACTAGTGCAAGAGGCGGAGTCACCTAGTGCAG | 3300 fluorescence intensity (a.u.)
19 | CATCCGTCGCTTCGCTTTCGTTCGAACGCGTTGGACCCAGCGGAGTCACCTAGTGCAG | 3160 fluorescence intensity (a.u.)
20 | CTTTCTAATGTGTCAGCTACATTTCTGAATAAATAAATTCCGGAGTCACCTAGTGCAG | 3650 fluorescence intensity (a.u.)
21 | CTAGATTTTGCCAGAGCTGCGTTTGCTGGCGAATGTCCATCGGAGTCACCTAGTGCAG | 3270 fluorescence intensity (a.u.)
22 | ACCTGTTTGCACCAACACACGTACGCGTGCAGATGAACGACGGAGTCACCTAGTGCAG | 4190 fluorescence intensity (a.u.)
23 | CTGGGCCCTCGTGCTGCTCTTCTCATGTCACCACCGCCGGCGGAGTCACCTAGTGCAG | 3810 fluorescence intensity (a.u.)
24 | CTTACTTGAAAACACTATTTGCTCTCCTAATGGAACACAGCGGAGTCACCTAGTGCAG | 18000 fluorescence intensity (a.u.)
25 | ACGCCGCCGCCGGCATCCCTGACTCACCGACGCGGCTGCACGGAGTCACCTAGTGCAG | 8230 fluorescence intensity (a.u.)
26 | TCCGAGTCGTACTGTTCACTGGTCCAGTAGCTGATGCTGGCGGAGTCACCTAGTGCAG | 3610 fluorescence intensity (a.u.)
27 | TCATAACCAAAACCGTGAGTCGACGTCAGCTTGCCCAGCACGGAGTCACCTAGTGCAG | 4900 fluorescence intensity (a.u.)

In another format: entries from further up
Row	Sequence	binding signal
2	TCTCACAATACACCATTAGATGGGCTATCATCTCTGTTCGCGGAGTCACCTAGTGCAG	3320 fluorescence intensity (a.u.)
3	TAAGTACAGTTTTACACTATTCACGTCCAACGTTTGACCGCGGAGTCACCTAGTGCAG	4980 fluorescence intensity (a.u.)
5	CTACACGATTGATACCTACAGCCACGCCGTCGAATCCGTTCGGAGTCACCTAGTGCAG	3730 fluorescence intensity (a.u.)
7	TATTTCTGTCCACGATGGTATTTTGACTAAGATGCACTAGCGGAGTCACCTAGTGCAG	5150 fluorescence intensity (a.u.)
8	AAACTAGCCACGTTGGCGCCACGTCAGCCAAAACCGCCTTCGGAGTCACCTAGTGCAG	33700 fluorescence intensity (a.u.)
9	GGGCCCCACGCTCTGATCCCATAACCAACAATTATGCAGGCGGAGTCACCTAGTGCAG	3850 fluorescence intensity (a.u.)
12	GCTCATATGACTATACTGTGCTTTTATAAAGTGCAAATGCCGGAGTCACCTAGTGCAG	3300 fluorescence intensity (a.u.)
13	CTCTTCCTCCGCACGCCGCCGCAGACCGGATCCACGTAGCCGGAGTCACCTAGTGCAG	4410 fluorescence intensity (a.u.)
14	TTCTCATAGGCTACGATGGCACTTGCGGCGTCACCGAGGGCGGAGTCACCTAGTGCAG	4170 fluorescence intensity (a.u.)
18	TTCATCCGCTGTTCGGATGATTTCTGACTAGTGCAAGAGGCGGAGTCACCTAGTGCAG	3300 fluorescence intensity (a.u.)
20	CTTTCTAATGTGTCAGCTACATTTCTGAATAAATAAATTCCGGAGTCACCTAGTGCAG	3650 fluorescence intensity (a.u.)
22	ACCTGTTTGCACCAACACACGTACGCGTGCAGATGAACGACGGAGTCACCTAGTGCAG	4190 fluorescence intensity (a.u.)
26	TCCGAGTCGTACTGTTCACTGGTCCAGTAGCTGATGCTGGCGGAGTCACCTAGTGCAG	3610 fluorescence intensity (a.u.)
27	TCATAACCAAAACCGTGAGTCGACGTCAGCTTGCCCAGCACGGAGTCACCTAGTGCAG	4900 fluorescence intensity (a.u.)

Next entries.

Row | Sequence | binding signal
28 | TTTTGTAAGACGTGGATTTGTTTATCAAATTATCGTTTGTCGGAGTCACCTAGTGCAG | 5820 fluorescence intensity (a.u.)
29 | GATGAGGGTGGGGCAAAGGGTCTCTTGTCATATAACCTCGCGGAGTCACCTAGTGCAG | 3500 fluorescence intensity (a.u.)
30 | ATTTACTGGTGGAATTTTGGTATGCATCACCTCGTAATCCCGGAGTCACCTAGTGCAG | 3560 fluorescence intensity (a.u.)
31 | AGAGAGAGAGAGGGTTCCAGAATGCAGCAGAGAGGTAGGGCGGAGTCACCTAGTGCAG | 3480 fluorescence intensity (a.u.)
32 | TATCCTTCCACCTAGACTACATTAGCCTCTGCTAGCCTAACGGAGTCACCTAGTGCAG | 3560 fluorescence intensity (a.u.)
33 | AAAACAGAGGGACCCACGTGGGCCCCACCTGTCATCCTCGCGGAGTCACCTAGTGCAG | 8590 fluorescence intensity (a.u.)
34 | GGATCAGGTGGAGGAATAGCGATGGGAGGGGTGGTGGTTGCGGAGTCACCTAGTGCAG | 4280 fluorescence intensity (a.u.)
35 | TATTCTTCTTGCCACGTAAACACCTAGTCAGCATGAGTGACGGAGTCACCTAGTGCAG | 16700 fluorescence intensity (a.u.)
36 | ACCAATCAGTATCAGGCCGTCGACTTGTTCAGTGCAGCTGCGGAGTCACCTAGTGCAG | 3560 fluorescence intensity (a.u.)
37 | TCTTTGTGCCCACCTGGTTTCAGGTCAGGTTAGGTGACAGCGGAGTCACCTAGTGCAG | 4560 fluorescence intensity (a.u.)
38 | TAAGTTAATTTTGTTCCGTATGATTACAGTGACGGAATAGCGGAGTCACCTAGTGCAG | 3150 fluorescence intensity (a.u.)
39 | TGACCAAGTAACTTGAGTTGGAAGGTACTACGGCATATTGCGGAGTCACCTAGTGCAG | 3240 fluorescence intensity (a.u.)
40 | GTAGTGGCCCACCCGTCACTGTGTTCGTAGCAGGCGACTGCGGAGTCACCTAGTGCAG | 4150 fluorescence intensity (a.u.)
41 | GAGTGGGGACCAGATGAGCGAACAGGCGTGGACCCCAATGCGGAGTCACCTAGTGCAG | 3240 fluorescence intensity (a.u.)
42 | ACTCCAAAAGCACCAGAAGTTTGTCATGGCTGAGTCATGACGGAGTCACCTAGTGCAG | 10200 fluorescence intensity (a.u.)
43 | AGCAACCAAATCTTCCCAATTCTCACTTGCTCCTAGATACCGGAGTCACCTAGTGCAG | 3840 fluorescence intensity (a.u.)
44 | CATCAAAATTTTCCTACACACACAACGTTCCAATTTTAATCGGAGTCACCTAGTGCAG | 37400 fluorescence intensity (a.u.)
45 | GACATCAATGACACTGGCGCCGACACCCTCAACCCCTCGTCGGAGTCACCTAGTGCAG | 4060 fluorescence intensity (a.u.)
46 | GTTTTACATATTACAGTAGTGGGCGAGATGCTGTTGCAATCGGAGTCACCTAGTGCAG | 26700 fluorescence intensity (a.u.)
47 | GGCAATGGCTGATATGGGAAGGTAGGGGAGAAGGGTATAGCGGAGTCACCTAGTGCAG | 3400 fluorescence intensity (a.u.)
48 | ACGCGTGCCGAATGCCGTGGCGCGACGCGACGCGCCCAATCGGAGTCACCTAGTGCAG | 3390 fluorescence intensity (a.u.)
49 | AAACAGCTATTGCCGTCATATGTGCCACTTGCTCTCGTGGCGGAGTCACCTAGTGCAG | 5420 fluorescence intensity (a.u.)
50 | TACATTTCTTTGACAAAACTTTTATAACCAGCTGATGTGGCGGAGTCACCTAGTGCAG | 11400 fluorescence intensity (a.u.)
51 | TGTGGGGTGGCGATGAAGGTTGGCATCGCTGTCGTGGCTGCGGAGTCACCTAGTGCAG | 5190 fluorescence intensity (a.u.)
52 | ACCAAAATGAACTGGCCTGTCGTTTGCACCAGTGTATGTCCGGAGTCACCTAGTGCAG | 3340 fluorescence intensity (a.u.)
53 | CGGTGGGAGTGGGATAAAGGGACGTGGGGCGAGGTAGACCCGGAGTCACCTAGTGCAG | 3320 fluorescence intensity (a.u.)
54 | ACTACCATTACAAGCACTGACGTGTGGAACAATAGGAGTACGGAGTCACCTAGTGCAG | 4820 fluorescence intensity (a.u.)
